The chains are these.
T1: recombinant BTLA-Fc protein (B and T lymphocyte attenuator) (UniProt Q7Z6A9)
T1 sequence: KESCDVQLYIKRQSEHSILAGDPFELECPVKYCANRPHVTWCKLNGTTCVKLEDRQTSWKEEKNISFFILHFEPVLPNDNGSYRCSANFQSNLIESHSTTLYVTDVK

In publication PMC8234244, “Virtual Evolution of HVEM Segment for Checkpoint Inhibitor Discovery” (International Journal of Molecular Sciences, 2021) one finds binding data, which are given here for 4 molecules.

No constants are given. Whether binding was seen depends on the method and setting. Some entries that bind do so weakly or less than the wild type. Sequences can lack the tags named with a protein.

This assay deals with T1, recombinant BTLA-Fc protein (B and T lymphocyte attenuator). As to the kind of experiment: ELISA; competitive ELISA, primary screen: BTLA-Fc coated (350 ng/well), peptide 1 mg/mL in PBS for 12 h at room temperature, washed, then HVEM-biotin 2 h at room temperature, streptavidin-HRP; response as percent of the control; both purified. (In an ELISA, binding on a coated surface is turned into a signal by an enzyme label.)
In the case of KPACGELTGTVCE (N-terminal acetyl (Ac-); C-terminal amide (-NH2)) [SP3 E27P], the binding entry is “binds”.

On to KEACGDLTGTVCE (N-terminal acetyl (Ac-); C-terminal amide (-NH2)) [SP6 E31D], for which the binding entry was “binds”.

KKACGELTGTVCF (N-terminal acetyl (Ac-); C-terminal amide (-NH2)) [DP3 E27K E38F]: the binding entry is “binds”.

Regarding KEACGELPGTVCE (N-terminal acetyl (Ac-); C-terminal amide (-NH2)) [SP7 T33P], the binding result is given as “binds”.
